# Results as given in the supplement of paper PMC10727501.
# Some of the results follow. Single values are uncertain here, since repeats match poorly.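 Researchers measured free-swimming zebrafish larvae's O-bend response probability to dark flashes (naive: first five; training: remaining flashes of four 60-flash blocks; test: later 60-flash block) and OMR turning toward alternating leftward/rightward LED motion. Six treated larvae were compared to sixty 0.1% DMSO controls, with |SSMD|≥2 marking a hit.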
# Tested on: Danio rerio larvae (5 dpf, TLF)
# Test: Prob-Test (SSMD vs DMSO vehicle); higher = higher than vehicle (e.g. higher dark-flash O-bend response probability, or better optomotor performance)
# Details: 10 µM; pre-incubation: 30-90 min
row,SMILES,Prob-Test
1,CCCC(=O)Nc1ccc(OCC(O)CNC(C)C)c(C(C)=O)c1.Cl (stereo not given) [Acebutolol HCl],-0.359
2,CCCCCCCCCCCCc1ccc(S(=O)(=O)Nc2nncs2)cc1,-0.158
3,C=CCc1cccc(/C=N/NC(=O)CN2CCN(Cc3ccccc3)CC2)c1O,0.164
4,Cc1nnc(C(C)C)n1C1CC2CCC(C1)N2CC[C@H](NC(=O)C1CCC(F)(F)CC1)c1ccccc1 (stereo not given in full) [Maraviroc],-0.125
5,CC1(C)S[C@@H]2[C@H](NC(=O)C(C(=O)[O-])c3ccccc3)C(=O)N2[C@H]1C(=O)[O-].[Na+].[Na+] (stereo not given in full) [Carbenicillin disodium],-0.0766
6,O=c1[nH]cnc2c1ncn2[C@H]1CC[C@@H](CO)O1 [Didanosine],0.133
7,CO[C@H]1[C@@H](O[C@H]2O[C@@H](C)[C@H](O[C@@H]3C[C@](C)(O)[C@H](O)[C@@H](C)O3)[C@@H](N(C)C)[C@@H]2O)[C@@H](CC=O)C[C@@H](C)[C@@H](O[C@H]2CC[C@H](N(C)C)[C@H](C)O2)/C=C/C=C/C[C@@H](C)OC(=O)C[C@H]1O [Spiramycin],0.596
8,O=C(CCCCCCNC(=O)c1cnc(N(c2ccccc2)c2ccccc2)nc1)NO [Rocilinostat (ACY-1215)],-0.0767
9,Cc1oncc1C(=O)Nc1ccc(C(F)(F)F)cc1 [Leflunomide],-1.78
10,O=C(O)c1cc(-c2ccccc2)nc2ccccc12 [Cinchophen],-0.0183
11,O=C(CCCc1ccccc1)[O][Na] [Sodium Phenylbutyrate],-0.295
12,CCOC(=O)c1ccc(N2NC(=O)/C(=C/c3ccc([N+](=O)[O-])o3)C2=O)cc1,0.919
13,CN(C)CCCN1c2ccccc2CCc2ccccc21.Cl [Imipramine HCl],-0.903
14,C=CC(=O)N1CCC[C@@H](n2nc(-c3ccc(Oc4ccccc4)cc3)c3c(N)ncnc32)C1,-1.96
15,C=CCN1CCCC1CNC(=O)c1cc2nn[nH]c2cc1OC.Cl (stereo not given) [Alizapride HCl],-0.404
16,COCC[n+]1c2c(n(Cc3cnccn3)c1C)C(=O)c1ccccc1C2=O [YM155 (Sepantronium Bromide)],0.441
17,CC[C@@H]1C(=O)N(C)c2cnc(Nc3ccc(C(=O)NC4CCN(C)CC4)cc3OC)nc2N1C1CCCC1,0.0457
18,Cl.Cl.Fc1cc(-c2cccc3ncc(-c4cnn(C5CCNCC5)c4)nc23)cc(F)c1CN1CCOCC1,0.36
19,CC[C@@H](C)Nc1cc(C(=O)NC2CC3CCC(C2)N3c2ccc(C(=O)C3CC3)cn2)c(C)cc1C(N)=O (stereo not given in full),0.26
20,Cc1cc(C)c2c(c1)[C@@H](N(Cc1cc(C(F)(F)F)cc(C(F)(F)F)c1)c1nnn(C)n1)CCCN2C[C@H]1CC[C@H](C(=O)O)CC1,-1.69

row,SMILES,Prob-Test
1,CN(c1ncccc1CNc1nc(Nc2ccc3c(c2)CC(=O)N3)ncc1C(F)(F)F)S(C)(=O)=O,-0.494
2,Cc1nc(C(=O)NCC(=O)O)c(O)c2ccc(Oc3ccccc3)cc12,-0.0665
3,NCC(=O)Nc1ccc(-n2nc(C(F)(F)F)cc2-c2ccc3c(ccc4ccccc43)c2)cc1,-1.22
4,C[C@@H]1[C@H](NC(=O)/C(=N\OC(C)(C)C(=O)O)c2csc(N)n2)C(=O)N1S(=O)(=O)O [Aztreonam],0.412
5,CN1c2ccccc2C(=O)N2CCc3c([nH]c4ccccc34)C21 (stereo not given) [Evodiamine],-1.38
6,COc1ccc(-n2nc(C(N)=O)c3c2C(=O)N(c2ccc(N4CCCCC4=O)cc2)CC3)cc1 [Apixaban],0.324
7,O=c1c(-c2ccc(O)cc2)coc2cc(O)ccc12 [Daidzein],-0.0977
8,CN[C@@H](C)C(=O)N[C@H](C(=O)N1CCC[C@H]1C(=O)Nc1snnc1-c1ccccc1)C1CCCCC1,0.367
9,CC1(C)O[C@@H]2C[C@H]3[C@@H]4CCC5=CC(=O)CC[C@]5(C)[C@]4(F)[C@H](O)C[C@]3(C)[C@@]2(C(=O)CCl)O1 [Halcinonide],-0.0863
10,Cc1nc(Nc2ncc(C(=O)Nc3c(C)cccc3Cl)s2)cc(N2CCN(CCO)CC2)n1 [Dasatinib],-0.0419
11,COc1cccc2c1C(=O)c1c(O)c3c(c(O)c1C2=O)C[C@@](O)(C(=O)CO)C[C@H]3O[C@H]1C[C@H](N)[C@@H](O)[C@H](C)O1.Cl [Epirubicin HCl],0.0981
12,CC1(C)O[C@@H]2[C@@H](CO[C@@]3(COS(N)(=O)=O)OC(C)(C)O[C@@H]23)O1 [Topiramate],-0.411
13,CCN(CC)CC(=O)Nc1c(C)cccc1C [Lidocaine],-0.53
14,O=C(CS(=O)Cc1ccco1)NC/C=C\COc1cc(CN2CCCCC2)ccn1 (stereo not given) [Lafutidine],-0.451
15,CC(C)(Oc1ccc(CCNC(=O)c2ccc(Cl)cc2)cc1)C(=O)O [Bezafibrate],0.133
16,Brc1c(NC2=NCCN2)ccc2nccnc12.O=C(O)[C@@H](O)[C@@H](O)C(=O)O [Brimonidine Tartrate],-0.805
17,CCC(CC)n1ccc2c(C(=O)NCc3c(C)cc(C)[nH]c3=O)cc(C#N)cc21,-0.643
18,CC(=O)Oc1cc(C(F)(F)F)ccc1C(=O)O [Triflusal],-0.0728
19,C[C@H]1CCO[C@H]2Cn3cc(C(=O)NCc4ccc(F)cc4F)c(=O)c(O)c3C(=O)N21,0.0871
20,NCC[C@H](O)C(=O)N[C@@H]1C[C@H](N)[C@H](O[C@H]2O[C@H](CN)[C@@H](O)[C@@H](O)[C@H]2O)[C@H](O)[C@H]1O[C@H]1O[C@H](CO)[C@@H](O)[C@@H](N)[C@H]1O.O=S(=O)(O)O.O=S(=O)(O)O [Amikacin sulfate],-0.00111

# Filtered by structure, the entries above containing a furan ring, fused or not.
row,SMILES,Prob-Test
12,CCOC(=O)c1ccc(N2NC(=O)/C(=C/c3ccc([N+](=O)[O-])o3)C2=O)cc1,0.919
14,O=C(CS(=O)Cc1ccco1)NC/C=C\COc1cc(CN2CCCCC2)ccn1 (stereo not given) [Lafutidine],-0.451
